Measurements reported in PubChem BioAssay AID1159584 (Peter MacCallum Cancer Centre, 2016)
Screen: 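Genes whose loss is lethal only together with E-cadherin loss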 (primary screen). Cells: human MCF10A breast epithelial cells, parental and CDH1-null. Knock-down reagent: siRNA against human genes. Measured: 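Cell viability by CellTiter-Glo ATP luminescence, each line scaled to the mean of mock wells across plates, then CDH1-null over parental ratio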. Direction: CDH1-null / parental viability ratio: higher = CDH1-null cells survive relatively better than parental; CDH1-null viability vs mock: higher = more viable CDH1-null cells. Units: CDH1-null viability vs mock in fraction of mock.
The deposit covers about 18,000 reagents; this is an unselected part. Further read-outs or replicates are left out here. Reagent sequences are not shown. Not stated in the record: the amount of reagent, the time to read-out.

COL9A2 (collagen type IX alpha 2 chain) | CDH1-null / parental viability ratio = 1.26; CDH1-null viability vs mock = 0.67
RAX (retina and anterior neural fold homeobox) | CDH1-null / parental viability ratio = 1.17; CDH1-null viability vs mock = 0.84
PER2 (period circadian regulator 2) | CDH1-null / parental viability ratio = 0.73; CDH1-null viability vs mock = 0.66
MRPS10 (mitochondrial ribosomal protein S10) | CDH1-null / parental viability ratio = 1.2; CDH1-null viability vs mock = 1.16
NALCN (sodium leak channel, non-selective) | CDH1-null / parental viability ratio = 1.29; CDH1-null viability vs mock = 1.19
TSFM (Ts translation elongation factor, mitochondrial) | CDH1-null / parental viability ratio = 1.1; CDH1-null viability vs mock = 1.09
CLEC11A (C-type lectin domain containing 11A) | CDH1-null / parental viability ratio = 0.95; CDH1-null viability vs mock = 0.8
PLCB3 (phospholipase C beta 3) | CDH1-null / parental viability ratio = 1.1; CDH1-null viability vs mock = 1.08
TRMT61A (tRNA methyltransferase 61A) | CDH1-null / parental viability ratio = 1.13; CDH1-null viability vs mock = 0.86
OR51G2 (olfactory receptor family 51 subfamily G member 2) | CDH1-null / parental viability ratio = 1.04; CDH1-null viability vs mock = 0.72
MAPK6 (mitogen-activated protein kinase 6) | CDH1-null / parental viability ratio = 1.12; CDH1-null viability vs mock = 0.94
MAGEL2 (MAGE family member L2) | CDH1-null / parental viability ratio = 1.07; CDH1-null viability vs mock = 0.88
PDE10A (phosphodiesterase 10A) | CDH1-null / parental viability ratio = 0.98; CDH1-null viability vs mock = 0.96
DRICH1 (aspartate rich 1) | CDH1-null / parental viability ratio = 0.85; CDH1-null viability vs mock = 0.68
KRTAP15-1 (keratin associated protein 15-1) | CDH1-null / parental viability ratio = 1.18; CDH1-null viability vs mock = 0.71
STARD8 (StAR related lipid transfer domain containing 8) | CDH1-null / parental viability ratio = 1.1; CDH1-null viability vs mock = 0.68
PRP4K (pre-mRNA processing factor kinase PRP4K) | CDH1-null / parental viability ratio = 0.84; CDH1-null viability vs mock = 0.68
MRPL15 (mitochondrial ribosomal protein L15) | CDH1-null / parental viability ratio = 1.11; CDH1-null viability vs mock = 0.63
ATP1A2 (ATPase Na+/K+ transporting subunit alpha 2) | CDH1-null / parental viability ratio = 1.09; CDH1-null viability vs mock = 1.1
WDR4 | CDH1-null / parental viability ratio = 0.73; CDH1-null viability vs mock = 0.8
STARD7 (StAR related lipid transfer domain containing 7) | CDH1-null / parental viability ratio = 0.84; CDH1-null viability vs mock = 0.74
RTRAF (RNA transcription, translation and transport factor) | CDH1-null / parental viability ratio = 1.27; CDH1-null viability vs mock = 0.81
OGG1 (8-oxoguanine DNA glycosylase) | CDH1-null / parental viability ratio = 1.23; CDH1-null viability vs mock = 0.96
WBP4 (WW domain binding protein 4) | CDH1-null / parental viability ratio = 0.85; CDH1-null viability vs mock = 0.58
CENPB (centromere protein B) | CDH1-null / parental viability ratio = 1.06; CDH1-null viability vs mock = 1.21
PPM1N (protein phosphatase, Mg2+/Mn2+ dependent 1N (putative)) | CDH1-null / parental viability ratio = 1.03; CDH1-null viability vs mock = 0.72
KRTAP5-2 (keratin associated protein 5-2) | CDH1-null / parental viability ratio = 1.14; CDH1-null viability vs mock = 0.87
UHRF2 (ubiquitin like with PHD and ring finger domains 2) | CDH1-null / parental viability ratio = 1.15; CDH1-null viability vs mock = 0.38
NSMCE3 (NSE3 component of SMC5/6 complex) | CDH1-null / parental viability ratio = 1.27; CDH1-null viability vs mock = 0.79
ZFP36 (ZFP36 zinc finger CCCH-type) | CDH1-null / parental viability ratio = 0.99; CDH1-null viability vs mock = 0.69
ZNF33A (zinc finger protein 33A) | CDH1-null / parental viability ratio = 1.14; CDH1-null viability vs mock = 0.91
DLAT (dihydrolipoamide S-acetyltransferase) | CDH1-null / parental viability ratio = 1.01; CDH1-null viability vs mock = 0.91
LIN7B (lin-7 cell polarity scaffold B) | CDH1-null / parental viability ratio = 0.92; CDH1-null viability vs mock = 0.7
PSG11 (pregnancy specific beta-1-glycoprotein 11) | CDH1-null / parental viability ratio = 0.87; CDH1-null viability vs mock = 0.8
SMARCA2 | CDH1-null / parental viability ratio = 0.93; CDH1-null viability vs mock = 0.97

A few values from the list.
Entry for MRPL15 (mitochondrial ribosomal protein L15) in “CDH1-null / parental viability ratio”: 1.11
Result of STARD7 (StAR related lipid transfer domain containing 7) in “CDH1-null viability vs mock”: 0.74
Under “CDH1-null viability vs mock”, WDR4 shows 0.8
Result for NALCN (sodium leak channel, non-selective) in “CDH1-null viability vs mock”: 1.19
MAGEL2 (MAGE family member L2), CDH1-null / parental viability ratio = 1.07
